Source: PMC4240632

Target: dRYBP (Drosophila (endogenous in embryos))
Assay: affinity purification with mass spectrometry; two affinity purified anti-dRYBP antibodies (#194, #195) on sepharose A beads; nuclear extracts of 0-12 h Drosophila embryos; washes with 400 mM or 800 mM KCl and 0.1% NP-40; gel bands identified by nanoflow LC-MS/MS

| binding | Binder |
| --- | --- |
| no binding | Polycomb (protein, UniProt P26017 1-390) MTGRGKGSKGKLGRDNATDDPVDLVYAAEKIIQKRVKKGVVEYRVKWKGWNQRYNTWEPEVNILDRRLIDIYEQTNKSSGTPSKRGIKKKEKEPDPEPESEEDEYTFTENDVDTHQATTSSATHDKESKKEKKHHHHHHHHHHIKSERNSGRRSESPLTHHHHHHHHESKRQRIDHSSSSNSSFTHNSFVPEPDSNSSSSEDQPLIGTKRKAEVLKESGKIGVTIKTSPDGPTIKPQPTQQVTPSQQQPFQDQQQAEKIASEAATQLKSEQQATPLATEAINTTPAESGAEEEEVANEEGNQQAPQVPSENNNIPKPCNNLAINQKQPLTPLSPRALPPRFWLPAKCNISNRVVITDVTVNLETVTIRECKTERGFFRERDMKGDSSPVA |
| binds | SCE (protein, UniProt Q9VB08 1-435) MTSLDPAPNKTWELSLYELQRKPQEVITDSTEIAVSPRSLHSELMCPICLDMLKKTMTTKECLHRFCSDCIVTALRSGNKECPTCRKKLVSKRSLRADPNFDLLISKIYPSREEYEAIQEKVMAKFNQTQSQQALVNSINEGIKLQSQNRPQRFRTKGGGGGGGGGGNGNGAANVAAPPAPGAPTAVGRNASNQMHVHDTASNDSNSNTNSIDRENRDPGHSGTSAASAITSASNAAPSSSANSGASTSATRMQVDDASNPPSVRSTPSPVPSNSSSSKPKRAMSVLTSERSEESESDSQMDCRTEGDSNIDTEGEGNGELGINDEIELVFKPHPTEMSADNQLIRALKENCVRYIKTTANATVDHLSKYLAMRLTLDLGADLPEACRVLNFCIYVAPQPQQLVILNGNQTLHQVNDKFWKVNKPMEMYYSWKKT |
| no binding | SU(Z)2 (protein, UniProt P25172 1-1368) MHLQNTHNTMESNAAMDAASPASRDVRQFHDLITCRLCRGYMIDPTTVDYCYHTYCRSCILKHLLRAVYCPECKASGGKEINELNLKSDDTLRSLIYKLVPGLYQRECKELADFKEQHDLVDEQTTDEPEFFTTTELISLSLEYHPAMLHQCGPGEVPPTIYLQCAAGLPVELLKRFLCSKYNIETDNGLVEVEVTYKDEVLPTNFTLMDVAYCYNWSRESPMAFCYRILLYDNEQTKNDENNLSRINQDIEPEHSVRRSKSAKSVTFAEDLESEIDSGSPRSKVRCKTPPKVSPSSKNKRLTSSKREAEPESPVSNFKSLRSNDMRYSDYAVSKVKSEPEQEQFLLPREREQQPLEANTNIVVSIPPSQLRKSYVDAEDFELKTANRKGVGHLPKLKIELNSMKSKLSMPLSAGPRLEDTSCSLSCSAQQLDLETYAKNIGLKPIEQPLQQSASNPDSKYSPNASPMSSCSSSTNGSSSSLGTADASTSTSTSSSHRKRKKKHSKEPKDANGKRKKLHAEISSQTDGKMKVKITAKPNHKLDFKRSHSLASGELDLQKLKLDSTSTSEALNRTLGEEARSINSLVVGGAPTPPPTPTAEPEQQQQQQQQQQQPQQQQQQQQQQQQQQQFVVLPKIKDLTLPTSPPLPPSLFKAYTPSTTPTAPHTVAGGKPKQQQQQMPQQPQAVLQQSLAKTNPAKPPLSSNNNRKPNSGHFAVPQAPTHRNMYHMQRYQSTPSSIASAANKMPKRSMSLDESHPAKQARLSQAQAMASSYAAKLHMQTSNQAKSQAAAFLPNPQMRSYGLPDLGSKPTLPMLCPASSSSQVTITPRPRATPSIYSFSEPNIHVPALEIVRLPVNKQSAGGKGLTMPPLSPPATSSARLMGPPAALPKHAGHGHGAAKRSCQMPTMPMPLPLPLPMPMTTIPAIVKSPPLSVALSGQRNNKGNSSNSNAYRTSPPALINLRNTAAPQHSFPSKSSPKVEANSKKSPPAAGCQGKTNGTAALDKSKTSLREFRPAVQSAVTATATTSVTTAAGAGAGAGTGTGTALAKDADILDLSANPGRSNNDAKLAPNSPPAGNNNNNNNNNNNNNNNNNNNNNNSTSNSLEAALNKIKQNISANSNGGPSTTSGSNSNGTTNGDDLQNLHMLSESATAREKISIKAASSGNGSGSTSSSSAKPKNANALVRPQNASVRSIPNPSALAFRNQPAAASTAASISKPLTVRAEEKPKVSTSNPGSLSPTNTSSSSSSSSSGSSGCSAATSPRAMTKKPTTIDQVAANLNIRAEAKAAALAEEAPPVLSSNAAKSPELAKTTTAVALRPEPKETPITVSAASTLLTIPSAVSSVSAVPETMAKPPVQIANAPVASSA |
| no binding | RAD6 (protein, UniProt P25153 1-151) MSTPARRRLMRDFKRLQEDPPTGVSGAPTDNNIMIWNAVIFGPHDTPFEDGTFKLTIEFTEEYPNKPPTVRFVSKVFHPNVYADGGICLDILQNRWSPTYDVSAILTSIQSLLSDPNPNSPANSTAAQLYKENRREYEKRVKACVEQSFID |
| binds | dBRE1 (protein, UniProt Q9VRP9 1-1044) MSKRSADDATGSSCLVAAAAAGQPPIKKVHFEPHLIGPVSTLEEMDIKVLEFQNKKLAQRIEQRMRTEAELRHRIEQLEKRQTQDDAVLNVVNRYWNQLNEDIRVLLQRFDAETADELENRNENEVTTSFLAQLSTWDKEELDEKLANRVQVSKRAVAKIVQVIDRLMQRNEKITHVLKGDSLASAGSGSGAGAGGEEEQQQASGDAETTTSSAGVHALEETLKQTHIEIMSENHKLQNLNTSLHEKFHTMSLKMKEYQDAHTAKETENAELKNQIDELQYDLEKIHCRNDKLENHLAEAIEKLKAYHQIYGDPNKSTNSAKTPTTTGSGGATTSVNSQLLEELQKELEEYRELANNRLQELDKLHATHRETLKEVEKLKMDIRQLPESVIVETTEYKCLQSQFSVLYNESMQIKTMLDETRNQLQTSKNQHLRQIEVMESEELIAQKKVRSEMIQMEDVLALIRKEYETLRIEFEQNMAANEQTAPINREMRHLITSLQNHNGQLKGEVQRYKRKYKDTSTDNLKLRQELADALATLEGNKLQAATGAAGEEIKQENSTGVKEENSNNVSASGQTNQTNSGNDTNVAIKEENHISAEDEADDEASGKDVKDGIKQEKLSSGDAAAAEKKDSPGPGNSTSSATNSVPVKNEKDSKDGVKGKDVKAVESETVRDLKAQLKKALNDQKEMKLLLDMYKGVSKDQRDKVQLMATEKKLRSEIEELRQQLKKLQESKREERKKLADEEALRKIKQLEEQKYELQKQMANHKPTDNSWGSGAPGTANYTRPFVGSHEEEALLNEMEVTGQAFEDMQEQNSRLIQQLREKDDANFKLMSERIKANQLHKLLREEKTVLEDQMATATTQIEAMHIVLRKLEEKERSLQATVASIEKELMLRQQAMEMHKRKAIESAQSAADLKLHLEKYHAQMKEAQQVVAEKTSSLEAEAYKTKRLQEELAQFKRKAERMKKMEMSGTTIDEVMIEEIREYKETLTCPSCKVKRKDAVLSKCFHVFCYDCLRTRYETRQRKCPKCNCAFGANDYHRLYLQ |

These are yes or no findings as the source states them, for the method shown. Binding seen in cells or lysates may run through a third protein. Here binding means that the protein was enriched with, or labelled near, the bait; the list need not be complete. No binding means not detected with the bait.
